Measurements reported in PubChem BioAssay AID504786 (Drosophila RNAi Screening Center, 2011)
The screen tested about 21,000 reagents; shown is a random part of those that have a named target and a result. 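Primary screen; positive scores mean lost reporter signal, so the sign may be inverted from the usual convention.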 Names joined by + are all predicted targets of the reagent. No sequences are given here.

Assay: 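Fly genes required for HIF-dependent transcription when hypoxia is mimicked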 (primary screen)
Cells: Drosophila S2 cells with a stable HIF luciferase reporter
Reagents: long dsRNA against Drosophila genes, about 0.2 µg dsRNA per well of a 384-well plate
Timing: three days of knock-down, then 20 h of DFO before reading
Challenge: desferrioxamine (DFO) at 100 µM, an iron chelator that mimics hypoxia, for 20 h
Measured: 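HIF reporter luminescence in cells given 100 µM DFO for 20 h, using the mouse ldh-a hypoxia-response element, scored as per-plate z-scores; higher means greater loss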
Reading the numbers: z-score: higher = stronger loss of HIF reporter signal

The first 2 entries, to show the layout:
| gene | DRSC id | z-score, replicate 1 | z-score, replicate 2 | z-score, replicate 3 | z-score, replicate 4 |
| --- | --- | --- | --- | --- | --- |
| CG2841 | DRSC17699 | 0.1 | -0.4 | -0.2 | -0.1 |
| CG2841 | DRSC18824 | -0.2 | -0.3 | – | – |

Main list, from the start:
| gene | DRSC id | z-score, replicate 1 | z-score, replicate 2 | z-score, replicate 3 | z-score, replicate 4 |
| --- | --- | --- | --- | --- | --- |
| CG2841 | DRSC17699 | 0.1 | -0.4 | -0.2 | -0.1 |
| CG2841 | DRSC18824 | -0.2 | -0.3 | – | – |
| Art3 | DRSC16065 | -0.3 | -0.1 | – | – |
| CG10996 | DRSC19363 | -0.3 | 0.1 | – | – |
| CG31183 | DRSC14403 | -0.2 | -0.1 | – | – |
| CG31183 | DRSC15554 | -0.1 | -0.5 | – | – |
| Gr58b | DRSC04140 | -0.2 | -0.4 | – | – |
| CG16719 | DRSC10222 | -0.1 | -0.4 | – | – |
| CG11570 | DRSC09844 | -0.2 | -0.2 | – | – |
| Ssadh | DRSC15621 | -0.3 | -0.4 | – | – |
| RpS3 | DRSC16838 | 5.3 | 6.2 | – | – |
| ND-51L1 | DRSC06072 | -0.3 | -0.2 | – | – |
| CG14780 | DRSC18566 | -0.2 | -0.9 | – | – |
| S6KL | DRSC19349 | -0.2 | -0.6 | – | – |
| CG14805 | DRSC18554 | 0.2 | 1.1 | – | – |
| CG12672 | DRSC19482 | -0.2 | 0 | -1 | -0.3 |
| CG13068 | DRSC09951 | -0.4 | 0 | – | – |
| CG1889 + CG43386 | DRSC17979 | -0.5 | -0.8 | – | – |
| Creld | DRSC00308 | -0.3 | -0.5 | – | – |
| Nlg1 | DRSC12485 | -0.3 | 0.3 | – | – |
| Nlg1 | DRSC12532 | -0.1 | 0.7 | – | – |
| Nlg1 | DRSC12533 | -0.3 | -0.8 | – | – |
| Nlg1 | DRSC12539 | -0.3 | -0.6 | – | – |
| Mipp1 | DRSC11223 | -0.2 | -0.2 | – | – |
| Lztr1 | DRSC18176 | -0.4 | -0.6 | – | – |
| Lztr1 | DRSC18647 | -0.4 | -0.9 | – | – |
| CG3104 | DRSC00567 | 0.1 | 0.1 | – | – |
| Sec24CD | DRSC00300 | -0.5 | -0.4 | – | – |
| CG15543 | DRSC15081 | 0 | -0.1 | – | – |
| Sgs8 | DRSC11282 | -0.2 | -0.1 | – | – |
| CG42827 + CG42828 | DRSC16116 | -0.2 | 0 | -0.3 | 0.1 |
| CG31953 (retired record) + gkt | DRSC00709 | -0.3 | -0.8 | – | – |
| AttC | DRSC06886 | -0.3 | -0.3 | – | – |
| CAH2 | DRSC10746 | -0.4 | -0.6 | – | – |
| Cyt-c-p | DRSC03310 | -0.2 | 0.1 | – | – |
| Prp4k | DRSC08144 | -0.3 | -0.7 | – | – |
| lncRNA:sphinx + ATPsynF | DRSC17191 | 2 | 1.4 | – | – |
| snz | DRSC17969 | -0.3 | -0.5 | – | – |
| Hsc70-2 | DRSC16710 | 0.2 | 0 | – | – |
| CG15814 | DRSC19730 | -0.2 | 0.3 | – | – |
| CG14441 | DRSC17934 | -0.2 | -0.1 | – | – |
| CG6282 | DRSC10616 | -0.2 | -0.2 | – | – |
| eIF4E6 | DRSC14853 | -0.2 | -0.4 | – | – |
| SppL | DRSC15228 | -0.2 | -0.6 | – | – |
| Tsp29Fb | DRSC03233 | -0.3 | -0.4 | – | – |
| CG13559 | DRSC04197 | -0.3 | -0.4 | – | – |
| CG17721 | DRSC15253 | -0.2 | -0.5 | – | – |
| lin-28 | DRSC10261 | 0.4 | 0.1 | – | – |
| CG8613 | DRSC07222 | -0.3 | -0.3 | – | – |
| TfIIA-S | DRSC16883 | 0.1 | -0.3 | – | – |
| CG34166 | DRSC02482 | -0.6 | -0.4 | – | – |
| CG8993 | DRSC08616 | -0.1 | -0.2 | – | – |
| ETHR | DRSC15915 | 0.6 | 0.2 | – | – |
| CG31559 | DRSC12172 | 0 | 0.3 | – | – |
| CG31559 | DRSC12270 | -0.1 | 0.4 | – | – |
| CG42656 | DRSC12472 | -0.3 | -0.4 | – | – |
| CG2124 | DRSC18208 | -0.3 | -0.2 | – | – |
| CG15879 | DRSC08487 | -0.3 | -0.7 | – | – |
| ppk29 | DRSC04205 | 0 | 0 | – | – |
| CG7465 | DRSC08592 | -0.4 | -0.4 | – | – |
| CG4768 | DRSC19917 | 0 | 0.2 | 0.9 | -0.2 |
| Ald2 | DRSC15799 | -0.3 | 0.2 | – | – |
| Dlip2 | DRSC12346 | -0.2 | -0.6 | – | – |
| inc | DRSC17954 | -0.1 | -0.6 | – | – |
| inc | DRSC18512 | -0.3 | -0.4 | – | – |
| mRpS25 | DRSC19598 | 1.1 | 0.4 | – | – |
| Or56a | DRSC07495 | -0.2 | -0.4 | – | – |
| CG17169 | DRSC20905 | -0.3 | -0.3 | – | – |
| eIF5B | DRSC08429 | 0.2 | 0.4 | – | – |
| eIF5B | DRSC08710 | 0.7 | 1.7 | – | – |
| Atac1 | DRSC03155 | -0.3 | -0.4 | – | – |
| snf | DRSC18835 | 0.4 | 0.8 | – | – |
| CG8837 | DRSC00711 | -0.1 | -0.2 | – | – |
| Cht5 | DRSC16470 | -0.4 | -0.3 | – | – |
| CG31954 | DRSC00580 | -0.3 | -0.2 | – | – |
| CG17996 + Tsen2 | DRSC02650 | 0.1 | -0.5 | – | – |
| CG11608 | DRSC14334 | -0.2 | 0 | – | – |
| ich | DRSC12715 | -0.4 | -0.3 | – | – |
| ich | DRSC14448 | -0.1 | -0.1 | – | – |
| Nnk | DRSC15274 | -0.4 | 0.3 | – | – |
| mRpS2 | DRSC00550 | 0.2 | -0.8 | – | – |
| CG6833 | DRSC10721 | 0.1 | 0.1 | – | – |
| Cdlc2 | DRSC00743 | 0.6 | 0.7 | – | – |
